# In PubChem BioAssay AID1347426 (Functional Genomics Laboratory (NCATS/FGL), 2020):
# In all, about 31,000 sequences went through this assay and about 1,400 (4.5%) were called active.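 The calls were made as follows: active = median seed-adjusted z-score above 1 or below -1; inactive = the rest.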 The list shows a part of the results.
# Test: Novel Modifiers of Survival Motor Neuron (SMN) Protein: Gene Identification via Genome-wide siRNA Screen;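 also: luminescence tracks full-length SMN protein made from the SMN2 reporter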
# Conditions: HEK293T SMN2-luciferase reporter, siRNA knockdown, 72 h; actives lie on both sides
# How it was run: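 HEK293T cells stably expressing an SMN2 splicing/cDNA-luciferase reporter were reverse-transfected with a druggable-genome siRNA library and read by luminescence at 72 hours; hits defined by MAD score above 1.0 or below -1.0.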
row,Sequence,median seed-adjusted z-score
1,AGAUAACUGGAAAAUGUCUTT against SLC22A18AS,inactive: 0.0382
2,AGAGGCUUAUUUGACUUUATT against DCN,inactive: 0.326
3,GGUGAUGAGAGAUCCCAAUTT against PABPC4,inactive: -0.42
4,GAGAAUACCUGUUUAGUGUTT against COX7A2L,inactive: 0
5,CCAUUUCGACUGACACGUUTT against MCHR2,inactive: -0.658
6,GGCUAGAUGCGGACAUUCATT against EEFSEC,inactive: -0.000421
7,AGCGGAACCUGAAUCCCAATT against TCF3,inactive: -0.0126
8,GAAAAUCAGUCAACAAGAUTT against NMUR2,inactive: 0.529
9,CUUGUAGAGUCGCACCUUATT against SHOX2,inactive: -0.238
10,GCACUGUAGCUGAUCUAUUTT against CYP2C8,inactive: 0.371
11,CGAGCACCCUUACAAGUCUTT against RYR1,inactive: -0.474
12,CCCACAUUCUUGUCCGGCATT against ADAMTS4,inactive: -0.0153
13,CAGAUACACUGACUACGAUTT against PPARGC1B,inactive: -0.366
14,GACAGAUGACUGAUCCUAATT against PSMD13,inactive: 0.58
15,GCUCCGAUCCUUCCAUGUATT against HIRA,inactive: 0.286
16,GCGAUUUAAUAUUAAGGAATT against CHD2,inactive: 0.422
17,AGUCCGAAGAUGUCCCAUATT against ATP6AP1,inactive: 0.358
18,CAACAGAUCCUCACCAGUATT against LEP,inactive: -0.143
19,GCCUAUUUACAACAGCUAATT against ARPC3,inactive: -0.237
20,CAAGGUGCAUUACCCGAAATT against CES7,inactive: -0.374
21,ACAUCGUUAUUUUCUAUUATT against FOXD4L1,inactive: 0.271
22,CCAGAAUAUCUAUAUUCAATT against PKP2,inactive: -0.0809
23,UGUGGAUCUGCUUACCAAATT against ZFAND2B,inactive: 0

row,Sequence,median seed-adjusted z-score
1,GAAUCUAUGAGGAAUAUGATT against PTPN9,inactive: 0.148
2,GAGAUGAACCGGAACAUCATT against LOC650864,inactive: 0.214
3,GCCUUCAGCUGUCAGCUUUTT against RBCK1,inactive: 0.479
4,GGCUGCCGAGUAUACCAUUTT against STK40,inactive: -0.555
5,CAUAACCACUUUAAAGUCATT against GAB1,inactive: 0.373
6,GUUGAUAGCUGGUAAUGAATT against EIF2S3,inactive: -0.0572
7,GGAGCUCCUUUGUGAGUUUTT against PROCR,inactive: -0.476
8,GGAGUAUAAUGACAUAUGATT against DGKH,inactive: 0.13
9,GAGCACAUCCGAGAAUUAATT against ANXA11,inactive: 0.21
10,GCAUCGUUCCAGACGGUGUTT against MYH7B,inactive: -0.0322
11,GGCCUAAGGAAUCACCGAATT against ZNF782,inactive: 0.117
12,GCAUCAACGCGGGAUUCCATT against TFAP4,inactive: -0.0515
13,CAGCUUAGAUGGAAACCAUTT against HGD,inactive: -0.0401
14,GAAAAAUUGGGAUCUUUUUTT against METTL6,inactive: -0.415
15,GAAUGGGUUUGGAAGCCUUTT against TBX18,inactive: 0.424
16,CAAUGAUCGGGAGCGAGUATT against ARF3,inactive: 0.18
17,GGAGUGUACUUUGAGGAUUTT against ZFP57,inactive: -0.267
18,GUCAGAGGAUGGUCCCAAATT against PRDM14,inactive: 0.316
19,CCUUUAACCAGUCUGCACATT against ZNF85,active: -1.01
20,GGAAACGAAGUGAAGCUAATT against PECI,inactive: -0.0254
21,GGGUUUUGGAGAUCAUAUUTT against TXNDC12,inactive: -0.154
22,CCAGAUCCGCGAACUGGAATT against HOXD11,inactive: -0.185
23,CUACAACACUUUUGACGGUTT against BMPER,inactive: -0.684

# Reprinted at random: five records from the list.
row,Sequence,median seed-adjusted z-score
17,GGAGUGUACUUUGAGGAUUTT against ZFP57,inactive: -0.267
7,GGAGCUCCUUUGUGAGUUUTT against PROCR,inactive: -0.476
21,GGGUUUUGGAGAUCAUAUUTT against TXNDC12,inactive: -0.154
19,CCUUUAACCAGUCUGCACATT against ZNF85,active: -1.01
9,GAGCACAUCCGAGAAUUAATT against ANXA11,inactive: 0.21

# (next part)

row,Sequence,median seed-adjusted z-score
1,GAAUGUUAAAAGACAACAATT against CLINT1,inactive: 0.332
2,CCUCAUAUGUGGGACAGAATT against USP3,inactive: -0.176
3,CUGUGAUGCUUUCACCUAUTT against TFPI2,inactive: 0.519
4,GCAGAGUCAUCAUGAGCUATT against SMAD5,inactive: -0.701
5,GCACAGAGGUGACAUCUCATT against TP53I13,inactive: 0
6,GCAUCUACCGAGUGGCCAATT against ADRA2C,inactive: 0
7,CCGUCAAUGAGGGCACCUATT against MMP23B,inactive: 0.288
8,ACACUUCACCUAGCAGAGATT against PTK7,inactive: 0.548
9,GCCCUUCACUGAGGAGUUUTT against GRHL3,inactive: -0.0434
10,GAAUUCACUUCAGAGCAAUTT against LMO4,inactive: -0.067
11,GAAAUGCGAGCUGAACAUATT against CMAS,inactive: -0.491
12,GUGUAGCAAUAAAACGGAUTT against STK39,inactive: 0.232
13,UUAUUUCUGUCUUAUCUUATT against PHF7,inactive: 0.425
14,CGAUGUCAGUUUCUAGUAATT against USP42,inactive: -0.0125
15,CCUUCGAUAUGUCAGGCGATT against CSNK1G1,inactive: -0.255
16,AGGACAAGCCCGUUUCUUUTT against THAP1,inactive: 0.139
17,GGCAAGACUUCGCACCUCATT against SP8,inactive: -0.215
18,GCGAUUGCUUUGAUGGGUATT against LTBP1,inactive: 0.143
19,AGAGCAUGGACAAUUCCAATT against GPS2,inactive: 0
20,CCAUUGAUCUCUCCUACAATT against ECM2,inactive: 0.179
21,ACAGUAAGGUCACAUCAGATT against FLOT2,inactive: 0.961
22,CGGAGCUUGUUAUCGCAAATT against CDK2,inactive: -0.347
